Measured values reported in US7563613B2, “Detoxification and decontamination using nanotechnology therapy” (University of Florida, priority 2001, dated 2009).
Where a name gives a salt, the structure may show the parent alone.

Columns and labels:
[1] = proton NMR shift of donor-trinitrobenzene pi-pi complexes; type: physicochemical; conditions: chloroform-d
[2] = proton NMR shift of donor-N-methyl-3,5-dinitrobenzamide pi-pi complexes; type: physicochemical
[3] = chloroform-d, [donor:acceptor] = 60:1
[4] = 50:50 D20:CD3CN, [Donor:Acceptor] = 60:1

Compound | Direction of shift ([1]; [donor:acceptor] = 60:1) | Shift (ppm, for acceptor) ([1]; [donor:acceptor] = 60:1) [ppm] | Direction of shift, Doublet [2, 3] | Direction of shift, Triplet [2, 3] | Shift (ppm, acceptor), Doublet [2, 3] | Shift (ppm, acceptor), Triplet [2, 3] | further results
Cc1ccc(N)c(C)c1 [2,4-Dimethylaniline] | Upfield | 0.3086 |  |  |  |  | 
CC(=O)Nc1c(C)cccc1C [2,6-Dimethyl-acetanilide] |  |  | Upfield | Upfield | 0.0055 ppm | 0.1584 ppm | Direction of shift, Doublet ([2]; chloroform-d, [D:A] = 1:1): Downfield; Direction of shift, Triplet ([2]; chloroform-d, [D:A] = 1:1): Upfield; Shift (ppm, acceptor), Doublet ([2]; chloroform-d, [D:A] = 1:1): 0.00775 ppm; Shift (ppm, acceptor), Triplet ([2]; chloroform-d, [D:A] = 1:1): 0.0156 ppm
Cc1cccc(C)c1N [2,6-Dimethylaniline] | Upfield | 0.2995 | Upfield | Upfield | Doublet 0.0779 ppm | Triplet 0.0874 ppm | 
COc1ccc(C)cc1OC [3,4-Dimethoxytoluene] | Upfield | 0.2730 |  |  |  |  | Direction of shift ([1]; at concentration in literature): Upfield; Shift (ppm, for acceptor) ([1]; at concentration in literature): 0.1868 ppm
Cc1cc(C)cc(N)c1 [3,5-Dimethylaniline] | Upfield | 0.2647 |  |  |  |  | 
CCCCN1CCCCC1C(=O)Nc1c(C)cccc1C (centres unmarked) [Bupivacaine (salt), Bupivacaine] |  |  |  |  |  |  | Direction of shift, Doublet [2, 4]: Upfield; Direction of shift, Triplet [2, 4]: Upfield; Shift (ppm, acceptor), Doublet [2, 4]: Doublet 0.0275 ppm; Shift (ppm, acceptor), Triplet [2, 4]: Triplet 0.0891 ppm
